Source: PMC6726650
Results are given in words; binding and its absence hold for the method and conditions named. In cells and extracts the contact can be indirect.

Molecular target: insulin-like growth factor 2 mRNA-binding protein 2 (IGF2BP2) (human (endogenous in A673)), Q9Y6M1
Experiment: co-IP; endogenous IGF2BP2 immunoprecipitated from 1 mg A673 total protein extract overnight with anti-IGF2BP2 antibody and anti-mouse IgG Dynabeads in RIP buffer (150 mM KCl, 25 mM Hepes pH 7.9, 5 mM EDTA, 0.5 mM DTT, 0.5% NP40); washed three times; western blot of retrieved proteins
Settings: remark: other sources report otherwise

binding: no binding
B1: LIN28B protein, Q6ZN17 1-250 (protein)
chain: MAEGGASKGGGEEPGKLPEPAEEESQVLRGTGHCKWFNVRMGFGFISMINREGSPLDIPVDVFVHQSKLFMEGFRSLKEGEPVEFTFKKSSKGLESIRVTGPGGSPCLGSERRPKGKTLQKRKPKGDRCYNCGGLDHHAKECSLPPQPKKCHYCQSIMHMVANCPHKNVAQPPASSQGRQEAESQPCTSTLPREVGGGHGCTSPPFPQEARAEISERSGRSPQEASSTKSSIAPEEQSKKGPSVQKRKKT
